Assay results: PubChem BioAssay AID2685 (National Center for Advancing Translational Sciences (NCATS), 2010)
Some of the results follow. Shown are side measurements of this screen, not its main read-out; they come without a call. The list favours compounds with an active or inconclusive main result. Potencies come from curve fits of mixed quality, noted in brackets.

Experiment: qHTS Assay for Lipid Storage Modulators in Drosophila S3 Cells;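 as to cell number change: cells counted by Cell Tracker Red CMTPX staining in the red channel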
Conditions: BODIPY lipid droplet fluorescence, 18-24 h; for cell number change: measured here: cell count max response, cells fed with added oleic acid
In short: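 Laser-scanning cytometry quantifies lipid droplet accumulation (500–530 nm total intensity; droplet/cell object ratio) in oleic acid-fed (400 uM added) Drosophila S3 cells treated with a concentration series. 20 uM Triacsin C defined 100% inhibition.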

[1] = measured here: cell number channel AC50, cells fed with added oleic acid
[2] = measured here: lipid fluorescence (Fed channel) AC50, cells fed with added oleic acid

| Structure (SMILES) | cell number change [%] | AC50 [1] | AC50 [2] |
| --- | --- | --- | --- |
| CCOC(=O)N/N=C\c1ccc(OC/C=C/c2ccccc2)cc1 | 18.3 | 0.517 µM [rising, partial curve, poor fit] |  |
| O=C(/C=C/c1ccccc1)N/C(=C/c1ccccc1)C(=O)N1CCOCC1 | -0.94 |  | 6.51 µM [rising, single point] |
| CCOc1ccc2nc(NC(=O)CSCC(=O)Nc3cc(C)on3)sc2c1 | 2.21 |  |  |
| O=c1c(C/C=C/c2ccccc2)c(O)ccn1Cc1cccc(Cl)c1 | -29.1 |  | 2.91 µM [falling, partial curve, poor fit] |
| CC(C)c1ccc(OCC(O)CNC(C)c2ccccc2)cc1 (stereo not given) | -11.7 | 0.731 µM [rising, full curve] | 29.1 µM [falling, single point] |
| CCCn1c(=O)c2sccc2n2c(CCCC(=O)NCc3ccco3)nnc12 |  |  | 9.2 µM [falling, partial curve] |
| COC(=O)c1ccc(OCC(O)CN2C(=O)c3ccccc3S2(=O)=O)cc1 (stereo not given) | -21.9 |  | 23.1 µM [falling, single point] |
| CC(=O)c1ccccc1NC(=O)COC(=O)/C(=C/c1ccccc1)n1nnnc1C |  |  | 6.51 µM [falling, partial curve] |
| COc1cccc(-c2nn(-c3ccc(F)cc3)cc2C(=O)NCC2CCCO2)c1 (stereo not given) |  |  | 29.1 µM [falling, single point] |
| COCCN(CCOC)S(=O)(=O)c1ccc(C(=O)Nc2nnc(C3CC3)o2)cc1 |  |  | 0.082 µM [falling, full curve] |
| CC(c1ccc(Cl)cc1)n1c(-c2ccc3ccccc3n2)n[nH]c1=S (stereo not given) | -37.9 |  | 29.1 µM [falling, single point] |
| Cc1noc(/C=C/N(C)C)c1S(=O)(=O)N1CCCC(C(=O)Nc2ccc3c(c2)OCO3)C1 (stereo not given) |  | 0.731 µM [rising, partial curve] | 1.03 µM [rising, partial curve] |
| O=C(Nc1cccc(S(=O)(=O)N2CCCCC2)c1)Nc1ccc(Cl)cc1Cl | 10 | 2.91 µM [rising, single point] | 3.26 µM [rising, single point] |
| COc1ccc(C(=O)NNC(=O)Cc2ccc(Cl)cc2)cc1 | 13.3 |  | 8.2 µM [rising, partial curve] |
| Cc1ccc(S(=O)(=O)Nc2ccc(N=Nc3ccc(O)cc3)cc2)cc1 | -40 | 7.31 µM [falling, partial curve] | 1.03 µM [falling, full curve, poor fit] |
| CCOc1ccccc1OCCOCCOc1c(Cl)cccc1Cl | 3.33 |  | 23.1 µM [rising, single point] |
| O=C(Nc1ccc(S(=O)(=O)N2CCOCC2)cc1)C1CC(=O)N(c2ccc(F)cc2)C1 (stereo not given) | -17.1 |  |  |
| O=C(CCCn1c(=O)c2sccc2n(CC(=O)OCc2ccccc2)c1=O)NCc1ccco1 | -22.7 |  | 20.6 µM [falling, single point] |
| Cc1ccc(S(=O)(=O)N2CCC(=O)N(CCOCc3ccccc3)CC2)cc1 | 24.9 |  | 11.6 µM [rising, partial curve] |
| Cc1ccc(C)c(C(=O)CN2C(=O)NC3(CCc4ccccc43)C2=O)c1 (stereo not given) | 6.26 | 3.66 µM [rising, single point] | 1.64 µM [rising, full curve, poor fit] |

| Structure (SMILES) | cell number change [%] | AC50 [1] | AC50 [2] |
| --- | --- | --- | --- |
| O=C(Nc1ccc2c(c1)OCO2)C1CCN(Cc2cnn(-c3ccccc3)c2-n2cccc2)CC1 | 51.7 | 1.16 µM [rising, full curve] | 1.3 µM [rising, full curve] |
| CS(=O)(=O)c1cccc(C(=O)Nc2ccccc2Cc2ccccc2)c1 | 0.84 |  |  |
| O=C(N/N=C/c1ccc(OC(=O)c2cccs2)cc1)c1cccc(F)c1 | -79.2 | 14.6 µM [falling, partial curve] | 14.6 µM [falling, partial curve] |
| COc1ccc(OCC(=O)N(C)Cc2ccccc2)cc1 | -8.44 |  | 3.26 µM [falling, full curve] |
| CCN(CC)CCCNC(=O)c1cc(-c2ccc3c(c2)OCO3)on1 |  |  | 0.58 µM [rising, single point] |
| Cc1ccc(N2C(=O)C(Cl)=C(NCCO)C2=O)c(C)c1 | 5.83 |  | 1.64 µM [rising, partial curve] |
| O=C(CCn1[nH]c(=O)c2ccccc2c1=O)OC1CCCCC1 | -27.4 |  |  |
| COc1c(C)cc(C(=O)C2CCCN(C(=O)c3cc(C4CC4)[nH]n3)C2)cc1C (stereo not given) | 5.67 | 6.51 µM [rising, single point] | 29.1 µM [falling, single point] |
| CC1CCCN(c2ccc(C(=O)OCn3nnc4ccccc4c3=O)cc2[N+](=O)[O-])C1 (stereo not given) | 16.7 |  | 0.146 µM [rising, full curve, poor fit] |
| COc1ccc([C@H]2CC(=O)C=C(c3ccc(OC(F)(F)F)cc3)C2)cc1OC | -36.4 | 7.31 µM [falling, partial curve] |  |
| Nc1ccc2c(c1)Cc1cc([N+](=O)[O-])ccc1-2 | 8.61 | 0.092 µM [rising, full curve, poor fit] |  |
| CCOc1ccc(NC(=O)NCCCSC2CCCCC2)cc1 | -24.1 |  | 0.164 µM [falling, full curve, poor fit] |
| O=C(CCS(=O)(=O)c1ccc(Cl)cc1)Nc1nc(-c2cccnc2)cs1 | 18.5 |  | 20.6 µM [rising, single point] |
| O=S(=O)(Nc1ccon1)c1cc(Cl)ccc1Cl | -13.5 |  | 0.259 µM [falling, full curve, poor fit] |
| O=C(CCN1CCCCC1)c1ccc2c(c1)OCO2 | -54.9 | 11.6 µM [falling, partial curve, poor fit] | 3.66 µM [falling, partial curve] |
| CCC1(CC)Nc2ccccc2C(=O)N1c1ccc(NC(C)=O)cc1 | 3.48 |  |  |
| CCC(C)(C)C1CCC2(CC1)NC(=O)N(CC(=O)Nc1nc(-c3ccc(C)cc3)cs1)C2=O (stereo not given) | -37.7 |  | 7.31 µM [falling, partial curve, poor fit] |
| O=C(NCc1ccccc1Cl)c1ccc2c(c1)OCO2 | 0.348 | 0.231 µM [rising, full curve, poor fit] |  |
| Cc1[nH]c(=O)[nH]c(=O)c1S(=O)(=O)Nc1ccc(F)cc1Cl | 76.1 | 29.1 µM [rising, single point] |  |
| CN1CCN(C(=O)CCN2C(=O)/C(=C\c3ccccc3F)SC2=S)CC1 | 32.3 | 16.4 µM [rising, partial curve, poor fit] |  |

Entries of single compounds, quoted from the list. Order of values: cell number change [%] | AC50 [1] | AC50 [2]
`Cc1ccc(C)c(C(=O)CN2C(=O)NC3(CCc4ccccc43)C2=O)c1` (stereo not given) in the list: 6.26 | 3.66 µM [rising, single point] | 1.64 µM [rising, full curve, poor fit]
`O=C(Nc1ccc2c(c1)OCO2)C1CCN(Cc2cnn(-c3ccccc3)c2-n2cccc2)CC1` in the list: 51.7 | 1.16 µM [rising, full curve] | 1.3 µM [rising, full curve]
`O=C(Nc1cccc(S(=O)(=O)N2CCCCC2)c1)Nc1ccc(Cl)cc1Cl` in the list: 10 | 2.91 µM [rising, single point] | 3.26 µM [rising, single point]
`Cc1ccc(S(=O)(=O)Nc2ccc(N=Nc3ccc(O)cc3)cc2)cc1` in the list: -40 | 7.31 µM [falling, partial curve] | 1.03 µM [falling, full curve, poor fit]

(listing goes on)

| Structure (SMILES) | cell number change [%] | AC50 [1] | AC50 [2] |
| --- | --- | --- | --- |
| COc1ccc(S(=O)(=O)N2CCN(C(=O)c3oc4ccccc4c3C)CC2)cc1 | -8.09 |  | 1.3 µM [rising, full curve] |
| O=C(c1ccccc1F)N1CCN(c2cnn(-c3cccc(Cl)c3)c(=O)c2Cl)CC1 | -22 |  | 29.1 µM [rising, single point] |
| Cc1ccc(-c2nnc(SCC(=O)N(C)C)nc2-c2ccc(C)cc2)cc1 | -2.86 | 3.66 µM [rising, single point] | 0.00461 µM [falling, full curve, poor fit] |
| Cc1ccc(Cl)cc1N1CCN(C(=O)Cc2ccc(-n3c(=O)[nH]c4ccsc4c3=O)cc2)CC1 | 4.84 |  | 16.4 µM [rising, single point] |
| Cc1ccc(OC(=O)c2cccc(S(=O)(=O)N(C)C)c2)c(-n2nc3ccccc3n2)c1 | -6.15 |  |  |
| Cc1ccc(OCC(=O)N2c3ccccc3CC2C)c([N+](=O)[O-])n1 (stereo not given) | 1.25 |  | 6.51 µM [rising, single point] |
| CC(=O)NC1C(=O)N=C(SCC(=O)Nc2c(C)cccc2C)NC1=O (stereo not given) | -36.4 | 29.1 µM [falling, single point] |  |
| CCOc1ccc(C(C(=O)NC2CCCC2)N(C(=O)c2snc(C(N)=O)c2N)c2cccc(O)c2)cc1 (stereo not given) | 15.7 |  | 29.1 µM [falling, single point] |
| COc1cc(CN2CCNC(=O)C2CC(=O)NCCCN2CCOCC2)cc(OC)c1 (stereo not given) | -24.1 |  | 29.1 µM [rising, single point] |
| CN(C)CCCOc1ccc2c(c1)Sc1ccccc1CC2=O | -66.7 | 29.1 µM [falling, single point] |  |
| COCCNC(=O)CC(NS(=O)(=O)c1ccc(NC(C)=O)cc1)C(C)C (stereo not given) |  |  | 29.1 µM [falling, single point] |
| CC(=O)C(=[N+]=[N-])C(=O)NCc1ccccc1 | -20.4 |  |  |
| COc1ccccc1NCC(=O)n1nc(C)cc1C | 23.5 |  | 0.00517 µM [rising, full curve, poor fit] |
| CC(C)c1ccc(C2(C)NC(=O)N(C(C)C(=O)Nc3ccc(N4CCOCC4)cc3)C2=O)cc1 (stereo not given) | 0.402 |  |  |
| COc1cccc(C2=NOC(C(=O)Nc3ccc(OC)c(OC)c3)C2)c1 (stereo not given) |  |  | 16.4 µM [falling, partial curve] |
| O=C(Nc1ccccc1N1CCOCC1)c1cc2ccccc2o1 |  |  | 29.1 µM [falling, single point] |
| COc1ccc(NC(=O)CC2C(=O)N(c3ccc(OC)cc3)C(=S)N2NC(=O)c2cccc(F)c2)cc1 (stereo not given) |  | 6.51 µM [falling, single point] | 23.1 µM [rising, single point] |
| Nc1c(C(=O)NCCN2CCOCC2)c2nc3ccccc3nc2n1CCc1ccccc1 | -68.2 | 29.1 µM [falling, single point] | 1.64 µM [rising, partial curve, poor fit] |
